## Screening data

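Native S16 rat Schwann cells given compound for 24 h, with viability read as cellular ATP luminescence (CellTiter-Glo). Each compound ran as a dilution series from about 0.00016 to 58 µM. The number is the fitted AC50 potency for cell killing; a lower value means a more potent cytotoxic effect. Calls follow curve class, fit quality (r2) and response size; inconclusive compounds get activity scores of 1 to 39, and these rows are all inconclusive.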

Values are in nM. All entries here are filed as inconclusive. Only part of the assay is shown, chiefly results filed as inconclusive. A potency from a partial, single-point or poor curve is only a rough figure. The first word of each remark tells which way the curve ran; it can be opposite to the aim of the assay. Activity scores are not listed here.

For CCCc1nc(C)c2c(=O)[nH]c(-c3cc(S(=O)(=O)N4CCN(CC)CC4)ccc3OCC)nn12 the result was potency 22793 nM (cytotoxic, partial curve, poor fit). For CCc1cc(C(N)=S)ccn1 the result was potency 32.2 nM (cytotoxic, full curve, poor fit). For O=C(CCN1CCN2CCCC2C1)N1c2ccccc2Sc2ccc(Cl)cc21 (stereo unspecified) the result was potency 28695 nM (cytotoxic, partial curve, poor fit). CC1CCC(O)C/C1=C\C=C1/CCCC2(C)C1CCC2C(C)/C=C/C(C)C(C)C (stereo unspecified) read potency 40533 nM (cytotoxic, single point). With Cc1c(C)n(Cc2ccccc2)c2ccc(C(=O)OCCN(C)C)cc12 the assay gave potency 32196 nM (cytotoxic, partial curve, poor fit).

With COc1ccc(C(=O)c2c(C)n(CCN3CCOCC3)c3ccccc23)cc1 the assay gave potency 40533 nM (cytotoxic, single point). CNCCC(Oc1ccc(C(F)(F)F)cc1)c1ccccc1 (stereo unspecified) read potency 36125 nM (cytotoxic, single point). For C[N+]1([O-])[C@@H]2CC(OC(=O)[C@@H](CO)c3ccccc3)C[C@@H]1[C@H]1O[C@H]12 (stereo partly specified) the result was potency 8.7 nM (rising, full curve, poor fit). For CC1(CN2CCC(n3c(=O)[nH]c4ccccc43)CC2)OCc2ccccc2-n2cccc21 (stereo unspecified) the result was potency 40533 nM (cytotoxic, single point). Result for O=S(=O)(O)c1cc(O)c2c(N=Nc3ccc(Nc4ccccc4)c4c(S(=O)(=O)O)cccc34)cc(S(=O)(=O)O)cc2c1 was potency 18105 nM (cytotoxic, partial curve, poor fit).

Clc1ccc2c(c1)C(c1ccccc1)=NCc1nncn1-2 read potency 128.2 nM (rising, full curve, poor fit). Cn1c(O)c(N=NC(N)=S)c2ccccc21 read potency 32196 nM (cytotoxic, partial curve, poor fit). For O=C(NCC1CCCCN1)c1cc(OCC(F)(F)F)ccc1OCC(F)(F)F (stereo unspecified) the result was potency 9074 nM (cytotoxic, partial curve, poor fit). Clc1ccc2c(c1)CCc1cccnc1C2=C1CCNCC1 read potency 28695 nM (cytotoxic, partial curve). For Cn1c(=O)c2c(ncn2CC2OCCO2)n(C)c1=O the result was potency 40533 nM (cytotoxic, single point).

For CNCCC(Oc1ccccc1C)c1ccccc1 (stereo unspecified) the result was potency 32196 nM (cytotoxic, partial curve, poor fit). Result for CCC(=O)c1ccc2c(c1)N(CCCN1CCN(CCO)CC1)c1ccccc1S2 was potency 25574 nM (cytotoxic, partial curve, poor fit).

The last 2 entries again:

| Compound | potency (nM) | curve as filed |
|---|---|---|
| `CNCCC(Oc1ccccc1C)c1ccccc1` (stereo unspecified) | 32196 | cytotoxic, partial curve, poor fit |
| `CCC(=O)c1ccc2c(c1)N(CCCN1CCN(CCO)CC1)c1ccccc1S2` | 25574 | cytotoxic, partial curve, poor fit |

Source: PubChem BioAssay AID624031 (NCATS, 2012).